This note sets out measurements from ChEMBL document CHEMBL1144897, “A potent, selective inhibitor of matrix metalloproteinase-3 for the topical treatment of chronic dermal ulcers” (J Med Chem, 2003).

By UniProt entry, the sequences of proteins in these tests, tags left out. Where a name states a change or a piece, a line headed by the entry shows the natural chain unless it says otherwise.
UniProt P08253: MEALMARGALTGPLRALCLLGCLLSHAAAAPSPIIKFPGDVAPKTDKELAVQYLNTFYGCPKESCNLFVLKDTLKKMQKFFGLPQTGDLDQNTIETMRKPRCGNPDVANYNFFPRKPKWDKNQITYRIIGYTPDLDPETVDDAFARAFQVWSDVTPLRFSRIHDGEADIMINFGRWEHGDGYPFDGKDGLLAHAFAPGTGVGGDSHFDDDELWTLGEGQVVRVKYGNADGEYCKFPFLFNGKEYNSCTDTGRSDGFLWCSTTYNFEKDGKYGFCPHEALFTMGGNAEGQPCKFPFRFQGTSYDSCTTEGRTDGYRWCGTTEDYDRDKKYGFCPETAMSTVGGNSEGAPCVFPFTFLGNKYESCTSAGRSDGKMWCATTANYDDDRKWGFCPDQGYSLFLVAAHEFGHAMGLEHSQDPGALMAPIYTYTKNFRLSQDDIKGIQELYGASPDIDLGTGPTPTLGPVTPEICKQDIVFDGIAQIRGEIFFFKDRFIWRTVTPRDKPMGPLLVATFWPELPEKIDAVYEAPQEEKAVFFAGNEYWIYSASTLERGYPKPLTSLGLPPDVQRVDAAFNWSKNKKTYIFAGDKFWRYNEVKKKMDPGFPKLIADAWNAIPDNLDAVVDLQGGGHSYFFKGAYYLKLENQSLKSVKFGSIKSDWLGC

In this test the target is 72 kDa type IV collagenase (Homo sapiens, UniProt P08253).

Regarding `CNC(=O)[C@H](Cc1ccc(OC)cc1)NC(=O)[C@@H](CC(=O)NO)CC(C)C`, inhibition was half-maximal at 6 nM (IC50).
